{
  "sequences": {"note": "By UniProt entry, the sequences of proteins in these tests, tags left out. Where a name states a change or a piece, a line headed by the entry shows the natural chain unless it says otherwise.", "UniProt P14406, whole entry, looked up": "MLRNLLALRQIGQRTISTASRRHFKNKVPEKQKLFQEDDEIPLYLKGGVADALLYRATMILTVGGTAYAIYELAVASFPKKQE", "UniProt Q9NQ92": "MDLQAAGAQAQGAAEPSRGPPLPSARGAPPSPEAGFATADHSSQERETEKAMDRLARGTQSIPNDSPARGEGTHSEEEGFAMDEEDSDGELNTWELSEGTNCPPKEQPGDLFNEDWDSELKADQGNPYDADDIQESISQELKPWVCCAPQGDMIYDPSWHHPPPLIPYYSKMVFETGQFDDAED", "UniProt Q14019": "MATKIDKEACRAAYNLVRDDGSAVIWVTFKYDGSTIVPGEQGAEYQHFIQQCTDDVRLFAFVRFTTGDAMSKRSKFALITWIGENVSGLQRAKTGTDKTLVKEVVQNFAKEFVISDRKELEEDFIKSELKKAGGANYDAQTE", "UniProt Q9Y6N1": "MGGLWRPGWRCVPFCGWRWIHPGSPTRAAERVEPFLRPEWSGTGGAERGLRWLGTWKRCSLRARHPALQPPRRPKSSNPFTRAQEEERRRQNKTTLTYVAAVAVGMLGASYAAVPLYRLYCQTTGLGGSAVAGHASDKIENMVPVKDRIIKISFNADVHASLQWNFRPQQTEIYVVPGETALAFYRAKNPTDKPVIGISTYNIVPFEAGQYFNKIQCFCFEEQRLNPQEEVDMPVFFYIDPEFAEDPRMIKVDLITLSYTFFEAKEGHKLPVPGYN", "UniProt P78560": "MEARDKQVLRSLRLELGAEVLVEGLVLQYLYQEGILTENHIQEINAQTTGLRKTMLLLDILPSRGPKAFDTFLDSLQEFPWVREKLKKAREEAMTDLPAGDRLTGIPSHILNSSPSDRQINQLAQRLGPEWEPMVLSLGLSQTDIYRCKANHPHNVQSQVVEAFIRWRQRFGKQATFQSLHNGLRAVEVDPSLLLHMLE", "UniProt Q86VU5": "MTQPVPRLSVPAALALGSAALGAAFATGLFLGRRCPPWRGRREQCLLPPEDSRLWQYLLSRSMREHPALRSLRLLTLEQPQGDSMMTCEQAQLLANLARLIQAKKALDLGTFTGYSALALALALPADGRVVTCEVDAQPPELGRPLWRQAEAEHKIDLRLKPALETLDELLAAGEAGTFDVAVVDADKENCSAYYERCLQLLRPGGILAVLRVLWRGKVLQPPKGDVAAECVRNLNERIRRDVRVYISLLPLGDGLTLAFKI", "UniProt Q49B96": "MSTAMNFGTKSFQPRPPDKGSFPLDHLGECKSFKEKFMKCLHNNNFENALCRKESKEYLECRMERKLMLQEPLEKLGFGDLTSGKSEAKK", "UniProt Q10570": "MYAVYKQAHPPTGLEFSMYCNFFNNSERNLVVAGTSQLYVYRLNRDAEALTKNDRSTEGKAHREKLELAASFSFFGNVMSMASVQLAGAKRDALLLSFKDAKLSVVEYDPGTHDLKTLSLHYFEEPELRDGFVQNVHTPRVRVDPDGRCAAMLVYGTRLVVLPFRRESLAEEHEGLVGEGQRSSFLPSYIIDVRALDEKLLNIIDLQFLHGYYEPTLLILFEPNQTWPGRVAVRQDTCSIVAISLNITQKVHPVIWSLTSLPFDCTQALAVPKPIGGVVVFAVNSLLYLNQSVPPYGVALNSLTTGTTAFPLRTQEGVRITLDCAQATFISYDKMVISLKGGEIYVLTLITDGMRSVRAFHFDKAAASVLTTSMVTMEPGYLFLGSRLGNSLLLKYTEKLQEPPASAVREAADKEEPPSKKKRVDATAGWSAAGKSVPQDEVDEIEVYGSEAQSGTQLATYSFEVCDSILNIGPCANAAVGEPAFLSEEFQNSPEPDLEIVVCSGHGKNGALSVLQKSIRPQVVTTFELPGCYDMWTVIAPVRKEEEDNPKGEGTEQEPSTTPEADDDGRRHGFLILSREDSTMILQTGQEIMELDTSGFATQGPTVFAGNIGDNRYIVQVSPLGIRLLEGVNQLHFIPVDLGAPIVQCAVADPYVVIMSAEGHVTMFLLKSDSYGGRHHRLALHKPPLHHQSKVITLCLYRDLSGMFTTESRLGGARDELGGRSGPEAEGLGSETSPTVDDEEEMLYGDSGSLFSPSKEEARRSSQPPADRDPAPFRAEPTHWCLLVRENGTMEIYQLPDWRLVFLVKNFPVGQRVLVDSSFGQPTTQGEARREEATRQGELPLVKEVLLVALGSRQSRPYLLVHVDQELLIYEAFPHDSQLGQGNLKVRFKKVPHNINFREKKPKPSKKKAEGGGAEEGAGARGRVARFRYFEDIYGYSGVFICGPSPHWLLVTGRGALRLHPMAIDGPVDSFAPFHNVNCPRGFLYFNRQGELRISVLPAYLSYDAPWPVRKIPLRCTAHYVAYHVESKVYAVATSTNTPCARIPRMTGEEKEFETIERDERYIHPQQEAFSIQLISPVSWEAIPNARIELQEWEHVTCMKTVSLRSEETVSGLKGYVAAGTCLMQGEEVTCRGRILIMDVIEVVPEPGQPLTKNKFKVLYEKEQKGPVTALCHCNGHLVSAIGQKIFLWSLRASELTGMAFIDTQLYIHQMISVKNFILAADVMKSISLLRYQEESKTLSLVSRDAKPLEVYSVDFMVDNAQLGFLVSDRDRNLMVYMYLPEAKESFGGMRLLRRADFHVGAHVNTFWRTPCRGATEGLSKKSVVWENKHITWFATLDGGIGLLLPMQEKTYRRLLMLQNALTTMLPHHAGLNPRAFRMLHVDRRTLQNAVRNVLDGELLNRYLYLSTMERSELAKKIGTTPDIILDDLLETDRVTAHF", "UniProt Q9Y2B0": "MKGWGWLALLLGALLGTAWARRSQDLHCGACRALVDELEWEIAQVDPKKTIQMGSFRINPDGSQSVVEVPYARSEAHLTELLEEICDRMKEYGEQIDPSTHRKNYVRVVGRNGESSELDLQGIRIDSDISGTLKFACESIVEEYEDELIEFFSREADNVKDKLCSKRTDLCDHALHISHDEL", "UniProt Q6PJW8": "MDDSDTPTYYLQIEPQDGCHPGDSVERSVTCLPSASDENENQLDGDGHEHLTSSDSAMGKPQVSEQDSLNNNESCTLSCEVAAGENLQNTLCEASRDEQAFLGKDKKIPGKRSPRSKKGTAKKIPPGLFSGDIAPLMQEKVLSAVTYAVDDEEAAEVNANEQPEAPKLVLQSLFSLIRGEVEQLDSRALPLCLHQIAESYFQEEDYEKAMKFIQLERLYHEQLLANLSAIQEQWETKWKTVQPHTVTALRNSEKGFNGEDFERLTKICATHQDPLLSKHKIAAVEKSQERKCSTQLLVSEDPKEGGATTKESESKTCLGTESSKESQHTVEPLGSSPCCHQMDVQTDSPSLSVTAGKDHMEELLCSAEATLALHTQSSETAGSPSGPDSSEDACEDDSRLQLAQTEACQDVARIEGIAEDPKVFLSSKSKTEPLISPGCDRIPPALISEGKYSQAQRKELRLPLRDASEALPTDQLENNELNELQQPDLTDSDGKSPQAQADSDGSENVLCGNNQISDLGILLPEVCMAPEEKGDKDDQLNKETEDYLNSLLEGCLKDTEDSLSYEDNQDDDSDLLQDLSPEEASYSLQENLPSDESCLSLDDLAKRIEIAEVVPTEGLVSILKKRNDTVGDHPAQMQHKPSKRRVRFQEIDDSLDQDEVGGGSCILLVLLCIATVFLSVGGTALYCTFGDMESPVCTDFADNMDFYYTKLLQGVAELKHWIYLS", "UniProt Q9H9Q2": "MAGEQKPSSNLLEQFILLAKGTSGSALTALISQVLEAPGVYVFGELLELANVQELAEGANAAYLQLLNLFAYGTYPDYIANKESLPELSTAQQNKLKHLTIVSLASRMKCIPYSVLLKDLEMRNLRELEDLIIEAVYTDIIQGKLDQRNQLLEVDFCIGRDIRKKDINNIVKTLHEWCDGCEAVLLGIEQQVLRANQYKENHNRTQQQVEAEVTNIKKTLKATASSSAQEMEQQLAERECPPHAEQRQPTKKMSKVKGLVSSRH", "UniProt Q9NZJ6": "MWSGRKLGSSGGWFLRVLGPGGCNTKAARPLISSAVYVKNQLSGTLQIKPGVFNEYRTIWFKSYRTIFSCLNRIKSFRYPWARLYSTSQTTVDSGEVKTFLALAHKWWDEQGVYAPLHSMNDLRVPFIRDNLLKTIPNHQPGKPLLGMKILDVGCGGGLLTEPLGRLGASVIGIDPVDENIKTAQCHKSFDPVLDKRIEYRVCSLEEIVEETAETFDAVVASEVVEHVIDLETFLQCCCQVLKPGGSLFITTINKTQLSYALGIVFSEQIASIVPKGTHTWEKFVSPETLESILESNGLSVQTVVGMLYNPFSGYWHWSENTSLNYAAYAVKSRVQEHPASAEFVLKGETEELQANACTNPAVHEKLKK", "UniProt P13073, whole entry, looked up": "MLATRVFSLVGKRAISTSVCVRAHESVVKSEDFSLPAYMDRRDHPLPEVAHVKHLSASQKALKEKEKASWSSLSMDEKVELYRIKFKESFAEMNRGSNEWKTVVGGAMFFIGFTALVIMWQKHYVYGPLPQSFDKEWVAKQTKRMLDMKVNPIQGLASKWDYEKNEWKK", "UniProt O95639, whole entry, looked up": "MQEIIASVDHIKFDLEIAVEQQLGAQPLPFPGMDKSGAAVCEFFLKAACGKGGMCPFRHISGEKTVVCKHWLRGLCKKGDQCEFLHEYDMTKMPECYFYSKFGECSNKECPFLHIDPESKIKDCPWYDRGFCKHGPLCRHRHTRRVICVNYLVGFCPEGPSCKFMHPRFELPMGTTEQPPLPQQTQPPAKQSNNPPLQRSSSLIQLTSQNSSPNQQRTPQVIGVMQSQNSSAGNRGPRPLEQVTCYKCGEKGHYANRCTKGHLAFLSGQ", "UniProt P39060, whole entry, looked up": "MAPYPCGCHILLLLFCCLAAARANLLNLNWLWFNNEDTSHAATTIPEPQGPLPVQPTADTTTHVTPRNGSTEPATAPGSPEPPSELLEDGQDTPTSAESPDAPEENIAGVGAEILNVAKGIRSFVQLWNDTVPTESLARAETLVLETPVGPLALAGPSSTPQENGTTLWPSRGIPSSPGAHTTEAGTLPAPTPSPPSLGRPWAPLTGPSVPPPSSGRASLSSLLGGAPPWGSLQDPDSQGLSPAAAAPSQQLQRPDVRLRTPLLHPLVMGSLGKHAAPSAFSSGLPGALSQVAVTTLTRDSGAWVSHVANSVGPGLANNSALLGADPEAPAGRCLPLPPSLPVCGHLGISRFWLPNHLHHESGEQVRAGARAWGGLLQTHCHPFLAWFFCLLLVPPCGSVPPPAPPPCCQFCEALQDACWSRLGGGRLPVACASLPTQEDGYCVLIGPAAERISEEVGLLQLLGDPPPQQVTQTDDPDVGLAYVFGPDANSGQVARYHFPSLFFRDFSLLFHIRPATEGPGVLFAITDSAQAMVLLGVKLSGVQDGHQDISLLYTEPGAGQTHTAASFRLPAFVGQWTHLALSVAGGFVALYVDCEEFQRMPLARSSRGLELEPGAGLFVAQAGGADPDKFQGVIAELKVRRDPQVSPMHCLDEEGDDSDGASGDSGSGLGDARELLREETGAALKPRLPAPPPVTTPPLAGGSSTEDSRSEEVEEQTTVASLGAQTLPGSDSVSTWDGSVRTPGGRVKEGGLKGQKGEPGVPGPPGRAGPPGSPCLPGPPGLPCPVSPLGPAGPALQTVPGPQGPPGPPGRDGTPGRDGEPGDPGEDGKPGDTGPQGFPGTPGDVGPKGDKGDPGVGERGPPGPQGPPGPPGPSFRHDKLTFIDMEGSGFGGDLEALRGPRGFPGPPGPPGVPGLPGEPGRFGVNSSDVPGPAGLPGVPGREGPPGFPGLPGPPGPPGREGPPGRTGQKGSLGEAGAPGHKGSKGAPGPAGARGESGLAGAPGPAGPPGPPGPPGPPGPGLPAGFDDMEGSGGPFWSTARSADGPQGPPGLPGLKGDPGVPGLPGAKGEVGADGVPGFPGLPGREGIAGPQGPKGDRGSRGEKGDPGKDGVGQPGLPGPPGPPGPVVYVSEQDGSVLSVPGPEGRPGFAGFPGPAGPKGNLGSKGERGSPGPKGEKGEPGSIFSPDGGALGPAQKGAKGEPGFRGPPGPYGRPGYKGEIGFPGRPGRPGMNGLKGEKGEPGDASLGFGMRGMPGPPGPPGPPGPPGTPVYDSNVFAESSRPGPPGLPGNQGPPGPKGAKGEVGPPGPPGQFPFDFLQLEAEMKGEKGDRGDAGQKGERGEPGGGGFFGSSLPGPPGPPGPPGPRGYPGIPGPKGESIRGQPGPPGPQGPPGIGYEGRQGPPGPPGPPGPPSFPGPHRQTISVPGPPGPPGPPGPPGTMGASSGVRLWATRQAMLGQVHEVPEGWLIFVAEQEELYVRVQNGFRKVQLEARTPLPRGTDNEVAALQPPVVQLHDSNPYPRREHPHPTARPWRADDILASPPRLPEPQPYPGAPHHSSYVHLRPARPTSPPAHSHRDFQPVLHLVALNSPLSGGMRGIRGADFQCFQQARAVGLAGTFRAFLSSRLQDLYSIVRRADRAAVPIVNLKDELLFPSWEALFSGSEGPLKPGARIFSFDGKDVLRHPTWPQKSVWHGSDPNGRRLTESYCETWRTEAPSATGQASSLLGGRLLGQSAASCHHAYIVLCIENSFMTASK", "UniProt P12074, whole entry, looked up": "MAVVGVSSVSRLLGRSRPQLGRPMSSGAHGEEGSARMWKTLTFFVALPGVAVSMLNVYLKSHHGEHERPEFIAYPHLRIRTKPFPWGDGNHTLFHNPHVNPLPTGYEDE"},
  "source": "the supplement of paper PMC10849652",
  "note": "The other results are listed elsewhere or left out.",
  "data": [
    {"compound": "CC(C)C1=C2N=C(C=C(N2N=C1)NCC3=CC=CC=C3)NCCCCCCN", "experiment": "log2 fold change, soluble protein after heating vs DMSO (PISA); higher = thermal stabilisation; K562 lysate, 10 uM; active = over 0.2 and 3.5 SD of the protein, either way, in both replicates (recomputed)", "outline": "(§1)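 Pellets of K562 cells were dounce-homogenised in PBS pH 7.4 with 1 mM MgCl2, and the crude extract was held at 1 mg/mL protein for a 30 min treatment with 10 μM compound. Aliquots were heated for 3 min over 48°C-58°C and pooled before NP-40 was added to 0.5% at 4°C. The supernatant from 21,000xg for 90 min was quantified by TMTpro 16plex LC-MS/MS with channel sums equalised. Values are reported from duplicates as log-two fold change in thermal stability relative to solvent controls.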", "values": [
      {"target": "CNOT10 (UniProt Q9H9A5)", "log2 fold change": "inactive: -0.021"},
      {"target": "COPA isoform 2 (UniProt P53621)", "log2 fold change": "inactive: -0.015"},
      {"target": "COPS3 (UniProt Q9UNS2)", "log2 fold change": "inactive: 0.001"},
      {"target": "COX7A2 (UniProt P14406)", "log2 fold change": "inactive: 0.027"},
      {"target": "CNOT6 (UniProt Q9ULM6)", "log2 fold change": "inactive: -0.019"},
      {"target": "CNOT7 (UniProt Q9UIV1)", "log2 fold change": "inactive: 0.022"},
      {"target": "CNOT3 (UniProt O75175)", "log2 fold change": "inactive: -0.012"},
      {"target": "COX5A (UniProt P20674)", "log2 fold change": "inactive: -0.042"},
      {"target": "COPRS (UniProt Q9NQ92)", "log2 fold change": "inactive: 0.009"},
      {"target": "COQ7 (UniProt Q99807)", "log2 fold change": "inactive: -0.012"},
      {"target": "COTL1 (UniProt Q14019)", "log2 fold change": "inactive: -0.007"},
      {"target": "COX11 (UniProt Q9Y6N1)", "log2 fold change": "inactive: 0.009"},
      {"target": "CRADD (UniProt P78560)", "log2 fold change": "inactive: -0.036"},
      {"target": "COMMD1 (UniProt Q8N668)", "log2 fold change": "inactive: 0.003"},
      {"target": "CNOT1 (UniProt A5YKK6)", "log2 fold change": "inactive: -0.013"},
      {"target": "CPSF7 isoform 3 (UniProt Q8N684)", "log2 fold change": "inactive: -0.036"},
      {"target": "COMTD1 (UniProt Q86VU5)", "log2 fold change": "inactive: -0.1"},
      {"target": "COX18 (UniProt Q8N8Q8)", "log2 fold change": "inactive: -0.005"},
      {"target": "COX19 (UniProt Q49B96)", "log2 fold change": "inactive: 0.008"},
      {"target": "COPZ1 isoform 4 (UniProt P61923)", "log2 fold change": "inactive: 0.02"},
      {"target": "CPSF1 (UniProt Q10570)", "log2 fold change": "inactive: -0.013"},
      {"target": "CNPY2 (UniProt Q9Y2B0)", "log2 fold change": "inactive: 0.025"},
      {"target": "CNST (UniProt Q6PJW8)", "log2 fold change": "inactive: 0.012"},
      {"target": "COA1 (UniProt Q9GZY4)", "log2 fold change": "inactive: 0.022"},
      {"target": "COPS7B (UniProt Q9H9Q2)", "log2 fold change": "inactive: -0.076"},
      {"target": "COQ3 (UniProt Q9NZJ6)", "log2 fold change": "inactive: -0.073"},
      {"target": "CNTN4 (UniProt Q8IWV2)", "log2 fold change": "inactive: 0.094"},
      {"target": "COX4I1 (UniProt P13073)", "log2 fold change": "inactive: 0.007"},
      {"target": "CPPED1 (UniProt Q9BRF8)", "log2 fold change": "inactive: -0.006"},
      {"target": "COPS4 (UniProt Q9BT78)", "log2 fold change": "inactive: -0.004"},
      {"target": "CPSF4 (UniProt O95639)", "log2 fold change": "inactive: -0.051"},
      {"target": "COMMD10 (UniProt Q9Y6G5)", "log2 fold change": "inactive: -0.003"},
      {"target": "CPD (UniProt O75976)", "log2 fold change": "inactive: -0.012"},
      {"target": "CORO1C isoform 3 (UniProt Q9ULV4)", "log2 fold change": "inactive: 0.02"},
      {"target": "CNOT4 isoform 6 (UniProt O95628)", "log2 fold change": "inactive: -0.003"},
      {"target": "COMMD9 (UniProt Q9P000)", "log2 fold change": "inactive: 0.058"},
      {"target": "COL18A1 (UniProt P39060)", "log2 fold change": "inactive: -0.045"},
      {"target": "CPEB4 (UniProt Q17RY0)", "log2 fold change": "inactive: -0.023"},
      {"target": "COX15 (UniProt Q7KZN9)", "log2 fold change": "inactive: 0.006"},
      {"target": "COX6A1 (UniProt P12074)", "log2 fold change": "inactive: -0.033"}
    ]},
    {"compound": "CC1=C(C(CC(=O)N1)C2=CC=C(C=C2)C(F)(F)F)C(=O)NC3=C(C=C4C(=C3)C=NN4)F", "experiment": "log2 fold change, soluble protein after heating vs DMSO (PISA); higher = thermal stabilisation; K562 lysate, 10 uM; active = over 0.2 and 3.5 SD of the protein, either way, in both replicates (recomputed)", "outline": "as §1", "values": [
      {"target": "CNOT10 (UniProt Q9H9A5)", "log2 fold change": "inactive: 0.006"},
      {"target": "COPA isoform 2 (UniProt P53621)", "log2 fold change": "inactive: -0.006"},
      {"target": "COPS3 (UniProt Q9UNS2)", "log2 fold change": "inactive: -0.005"},
      {"target": "COX7A2 (UniProt P14406)", "log2 fold change": "inactive: -0.015"},
      {"target": "CNOT6 (UniProt Q9ULM6)", "log2 fold change": "inactive: 0.023"},
      {"target": "CNOT7 (UniProt Q9UIV1)", "log2 fold change": "inactive: -0.005"},
      {"target": "CNOT3 (UniProt O75175)", "log2 fold change": "inactive: -0.023"},
      {"target": "COX5A (UniProt P20674)", "log2 fold change": "inactive: 0.035"},
      {"target": "COPRS (UniProt Q9NQ92)", "log2 fold change": "inactive: 0.082"},
      {"target": "COQ7 (UniProt Q99807)", "log2 fold change": "inactive: -0.005"},
      {"target": "COTL1 (UniProt Q14019)", "log2 fold change": "inactive: -0.055"},
      {"target": "COX11 (UniProt Q9Y6N1)", "log2 fold change": "inactive: -0.059"},
      {"target": "CRADD (UniProt P78560)", "log2 fold change": "inactive: -0.004"},
      {"target": "COMMD1 (UniProt Q8N668)", "log2 fold change": "inactive: 0.058"},
      {"target": "CNOT1 (UniProt A5YKK6)", "log2 fold change": "inactive: 0.007"},
      {"target": "CPSF7 isoform 3 (UniProt Q8N684)", "log2 fold change": "inactive: 0.025"},
      {"target": "COMTD1 (UniProt Q86VU5)", "log2 fold change": "inactive: -0.055"},
      {"target": "COX18 (UniProt Q8N8Q8)", "log2 fold change": "inactive: 0.072"},
      {"target": "COX19 (UniProt Q49B96)", "log2 fold change": "inactive: 0.077"},
      {"target": "COPZ1 isoform 4 (UniProt P61923)", "log2 fold change": "inactive: -0.054"},
      {"target": "CPSF1 (UniProt Q10570)", "log2 fold change": "inactive: 0.034"},
      {"target": "CNPY2 (UniProt Q9Y2B0)", "log2 fold change": "inactive: -0.04"},
      {"target": "CNST (UniProt Q6PJW8)", "log2 fold change": "inactive: 0.176"},
      {"target": "COA1 (UniProt Q9GZY4)", "log2 fold change": "inactive: -0.001"},
      {"target": "COPS7B (UniProt Q9H9Q2)", "log2 fold change": "inactive: -0.02"},
      {"target": "COQ3 (UniProt Q9NZJ6)", "log2 fold change": "inactive: 0.002"},
      {"target": "CNTN4 (UniProt Q8IWV2)", "log2 fold change": "inactive: -0.077"},
      {"target": "COX4I1 (UniProt P13073)", "log2 fold change": "inactive: -0.045"},
      {"target": "CPPED1 (UniProt Q9BRF8)", "log2 fold change": "inactive: -0.016"},
      {"target": "COPS4 (UniProt Q9BT78)", "log2 fold change": "inactive: -0.004"},
      {"target": "CPSF4 (UniProt O95639)", "log2 fold change": "inactive: -0.027"},
      {"target": "COMMD10 (UniProt Q9Y6G5)", "log2 fold change": "inactive: -0.007"},
      {"target": "CPD (UniProt O75976)", "log2 fold change": "inactive: 0.034"},
      {"target": "CORO1C isoform 3 (UniProt Q9ULV4)", "log2 fold change": "inactive: -0.011"},
      {"target": "CNOT4 isoform 6 (UniProt O95628)", "log2 fold change": "inactive: 0.049"},
      {"target": "COMMD9 (UniProt Q9P000)", "log2 fold change": "inactive: -0.14"},
      {"target": "COL18A1 (UniProt P39060)", "log2 fold change": "inactive: 0.041"},
      {"target": "CPEB4 (UniProt Q17RY0)", "log2 fold change": "inactive: -0.028"},
      {"target": "COX15 (UniProt Q7KZN9)", "log2 fold change": "inactive: -0.007"},
      {"target": "COX6A1 (UniProt P12074)", "log2 fold change": "inactive: 0.01"}
    ]}
  ]
}
